Measured values taken from article PMC11137182, “Selective and brain-penetrant ACSS2 inhibitors target breast cancer brain metastatic cells” (Frontiers in Pharmacology, 2024).

Assay: Human liver microsome stability

For CCCNCC(O)COc1ccccc1C(=O)CCc1ccccc1 (stereo not drawn) [Propafenone, reference compound], the “Remaining (T=60min)” value (human liver microsomes, 60 min) was 0.00396, the CLint scaled (human, liver microsomes) was 158 mL/min/kg and the microsomal CLint (human, liver microsomes) was 175 µL/min/mg.
